Data as given in the supplement of paper PMC6411743.
± gives the standard deviation of the averaged measurements. This is one part of the list.

Chains of the proteins cited; added tags and fusions are not shown. Lines headed by an entry give the natural chain unless they say otherwise; changes in a name come on top.
UniProt Q9Y4B5: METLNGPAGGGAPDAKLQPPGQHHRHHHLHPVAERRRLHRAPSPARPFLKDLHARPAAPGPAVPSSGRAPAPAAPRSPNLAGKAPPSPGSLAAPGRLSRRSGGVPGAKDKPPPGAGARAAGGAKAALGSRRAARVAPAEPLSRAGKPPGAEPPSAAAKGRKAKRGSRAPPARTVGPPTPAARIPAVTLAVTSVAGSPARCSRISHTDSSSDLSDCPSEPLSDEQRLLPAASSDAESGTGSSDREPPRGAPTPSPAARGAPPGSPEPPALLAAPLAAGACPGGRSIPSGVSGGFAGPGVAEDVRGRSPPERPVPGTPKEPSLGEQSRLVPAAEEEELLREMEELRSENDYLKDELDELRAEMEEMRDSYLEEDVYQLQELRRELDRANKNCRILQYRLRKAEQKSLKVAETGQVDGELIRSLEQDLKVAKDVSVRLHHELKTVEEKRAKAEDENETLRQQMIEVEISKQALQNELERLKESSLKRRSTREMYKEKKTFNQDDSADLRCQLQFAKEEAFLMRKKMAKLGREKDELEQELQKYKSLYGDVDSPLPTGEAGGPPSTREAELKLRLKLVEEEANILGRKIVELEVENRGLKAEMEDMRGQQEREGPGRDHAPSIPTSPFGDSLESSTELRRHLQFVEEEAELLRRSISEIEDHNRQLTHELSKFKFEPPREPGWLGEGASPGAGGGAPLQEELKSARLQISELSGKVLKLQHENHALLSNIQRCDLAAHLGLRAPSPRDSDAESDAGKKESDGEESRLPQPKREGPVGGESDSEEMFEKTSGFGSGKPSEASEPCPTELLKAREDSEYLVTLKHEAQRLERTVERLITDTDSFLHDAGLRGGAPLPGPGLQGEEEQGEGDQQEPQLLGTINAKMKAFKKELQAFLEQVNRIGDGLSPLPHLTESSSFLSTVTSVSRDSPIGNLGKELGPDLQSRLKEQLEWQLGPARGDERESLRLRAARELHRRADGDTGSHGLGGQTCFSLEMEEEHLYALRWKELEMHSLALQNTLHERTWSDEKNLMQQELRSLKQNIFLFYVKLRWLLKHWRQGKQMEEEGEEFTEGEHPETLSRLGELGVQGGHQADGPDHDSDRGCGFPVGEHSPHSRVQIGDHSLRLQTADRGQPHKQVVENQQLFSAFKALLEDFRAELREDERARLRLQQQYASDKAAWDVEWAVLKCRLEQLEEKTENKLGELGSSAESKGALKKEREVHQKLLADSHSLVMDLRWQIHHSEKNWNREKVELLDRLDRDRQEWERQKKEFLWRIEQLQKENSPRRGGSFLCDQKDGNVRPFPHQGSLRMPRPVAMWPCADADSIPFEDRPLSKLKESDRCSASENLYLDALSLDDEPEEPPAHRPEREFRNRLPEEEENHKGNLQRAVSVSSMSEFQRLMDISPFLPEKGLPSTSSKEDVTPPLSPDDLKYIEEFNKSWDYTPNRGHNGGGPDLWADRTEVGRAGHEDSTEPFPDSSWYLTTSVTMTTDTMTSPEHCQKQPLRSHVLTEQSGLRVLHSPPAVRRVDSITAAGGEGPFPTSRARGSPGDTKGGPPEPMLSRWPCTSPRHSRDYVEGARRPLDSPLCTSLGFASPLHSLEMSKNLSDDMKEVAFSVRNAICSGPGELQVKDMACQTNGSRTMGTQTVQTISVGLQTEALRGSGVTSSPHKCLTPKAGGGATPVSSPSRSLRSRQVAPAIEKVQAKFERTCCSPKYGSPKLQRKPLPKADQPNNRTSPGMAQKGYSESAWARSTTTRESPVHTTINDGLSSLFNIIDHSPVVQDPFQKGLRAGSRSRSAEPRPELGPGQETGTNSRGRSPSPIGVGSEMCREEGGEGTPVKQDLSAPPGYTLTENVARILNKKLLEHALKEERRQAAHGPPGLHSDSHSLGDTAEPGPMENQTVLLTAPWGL
UniProt Q9Y6K9, whole entry: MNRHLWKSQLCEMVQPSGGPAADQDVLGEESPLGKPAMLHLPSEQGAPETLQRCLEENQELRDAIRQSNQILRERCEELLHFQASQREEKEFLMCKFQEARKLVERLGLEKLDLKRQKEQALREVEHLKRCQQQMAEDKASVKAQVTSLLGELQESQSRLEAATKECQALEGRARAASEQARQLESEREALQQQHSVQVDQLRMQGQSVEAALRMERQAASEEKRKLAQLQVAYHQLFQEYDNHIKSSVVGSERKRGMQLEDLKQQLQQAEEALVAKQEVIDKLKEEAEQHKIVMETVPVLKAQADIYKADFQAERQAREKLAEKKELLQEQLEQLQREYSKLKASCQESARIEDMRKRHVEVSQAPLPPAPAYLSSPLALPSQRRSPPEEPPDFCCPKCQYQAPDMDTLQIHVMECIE
UniProt Q9Y2S6, whole entry: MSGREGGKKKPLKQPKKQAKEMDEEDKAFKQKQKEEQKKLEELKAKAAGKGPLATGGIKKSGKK
UniProt Q9Y4B6: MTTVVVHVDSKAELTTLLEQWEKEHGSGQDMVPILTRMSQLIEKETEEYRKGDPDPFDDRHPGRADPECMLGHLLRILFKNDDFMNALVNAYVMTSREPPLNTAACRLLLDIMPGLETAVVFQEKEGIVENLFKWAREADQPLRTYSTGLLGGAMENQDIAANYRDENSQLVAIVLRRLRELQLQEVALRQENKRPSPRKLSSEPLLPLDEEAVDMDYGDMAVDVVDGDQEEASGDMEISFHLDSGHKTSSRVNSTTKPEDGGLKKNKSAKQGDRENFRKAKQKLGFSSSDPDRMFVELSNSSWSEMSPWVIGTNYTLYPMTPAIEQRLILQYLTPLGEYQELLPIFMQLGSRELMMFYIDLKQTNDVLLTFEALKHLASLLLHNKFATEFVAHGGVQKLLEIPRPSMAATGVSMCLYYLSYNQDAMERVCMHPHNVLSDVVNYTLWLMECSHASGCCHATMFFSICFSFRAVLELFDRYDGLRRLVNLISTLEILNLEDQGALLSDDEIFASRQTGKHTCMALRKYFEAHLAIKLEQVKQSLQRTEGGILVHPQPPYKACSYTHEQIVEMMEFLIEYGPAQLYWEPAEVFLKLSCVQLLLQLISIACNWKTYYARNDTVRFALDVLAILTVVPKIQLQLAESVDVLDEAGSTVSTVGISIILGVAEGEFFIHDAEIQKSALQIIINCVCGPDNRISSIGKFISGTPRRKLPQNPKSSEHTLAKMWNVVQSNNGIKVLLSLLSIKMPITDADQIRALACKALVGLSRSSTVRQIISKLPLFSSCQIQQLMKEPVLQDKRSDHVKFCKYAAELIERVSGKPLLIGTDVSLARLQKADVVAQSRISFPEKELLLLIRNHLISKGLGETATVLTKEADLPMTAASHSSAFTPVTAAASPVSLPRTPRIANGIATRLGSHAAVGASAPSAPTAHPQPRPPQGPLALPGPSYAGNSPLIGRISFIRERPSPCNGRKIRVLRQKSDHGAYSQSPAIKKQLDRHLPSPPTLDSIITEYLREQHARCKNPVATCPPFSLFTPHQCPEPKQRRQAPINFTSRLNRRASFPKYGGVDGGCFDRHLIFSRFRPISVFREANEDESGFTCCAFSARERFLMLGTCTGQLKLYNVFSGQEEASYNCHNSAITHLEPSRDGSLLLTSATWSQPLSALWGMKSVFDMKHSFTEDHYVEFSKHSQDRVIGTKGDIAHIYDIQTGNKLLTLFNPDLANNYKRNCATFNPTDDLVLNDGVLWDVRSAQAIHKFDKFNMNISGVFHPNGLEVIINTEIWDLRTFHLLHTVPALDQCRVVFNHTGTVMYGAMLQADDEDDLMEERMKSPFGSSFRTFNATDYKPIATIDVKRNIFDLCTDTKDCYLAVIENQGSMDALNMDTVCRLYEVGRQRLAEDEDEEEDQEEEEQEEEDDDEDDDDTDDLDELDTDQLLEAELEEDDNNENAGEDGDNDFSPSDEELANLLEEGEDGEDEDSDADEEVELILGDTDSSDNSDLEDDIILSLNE
UniProt Q9Y228: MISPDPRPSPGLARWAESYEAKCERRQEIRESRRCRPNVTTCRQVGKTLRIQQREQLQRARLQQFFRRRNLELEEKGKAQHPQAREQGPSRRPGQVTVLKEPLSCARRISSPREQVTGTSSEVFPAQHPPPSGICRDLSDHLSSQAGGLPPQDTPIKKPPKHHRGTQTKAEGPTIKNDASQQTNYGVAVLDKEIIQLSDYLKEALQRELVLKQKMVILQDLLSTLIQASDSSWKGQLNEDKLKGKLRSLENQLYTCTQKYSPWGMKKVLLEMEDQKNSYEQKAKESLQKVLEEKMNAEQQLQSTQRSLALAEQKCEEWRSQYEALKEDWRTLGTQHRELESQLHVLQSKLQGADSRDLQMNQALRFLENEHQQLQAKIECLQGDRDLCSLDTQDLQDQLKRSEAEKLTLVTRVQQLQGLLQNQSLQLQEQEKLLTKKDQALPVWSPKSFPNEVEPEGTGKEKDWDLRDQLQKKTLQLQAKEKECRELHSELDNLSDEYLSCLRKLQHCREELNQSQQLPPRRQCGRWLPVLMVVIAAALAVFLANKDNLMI
UniProt Q9Y6V7: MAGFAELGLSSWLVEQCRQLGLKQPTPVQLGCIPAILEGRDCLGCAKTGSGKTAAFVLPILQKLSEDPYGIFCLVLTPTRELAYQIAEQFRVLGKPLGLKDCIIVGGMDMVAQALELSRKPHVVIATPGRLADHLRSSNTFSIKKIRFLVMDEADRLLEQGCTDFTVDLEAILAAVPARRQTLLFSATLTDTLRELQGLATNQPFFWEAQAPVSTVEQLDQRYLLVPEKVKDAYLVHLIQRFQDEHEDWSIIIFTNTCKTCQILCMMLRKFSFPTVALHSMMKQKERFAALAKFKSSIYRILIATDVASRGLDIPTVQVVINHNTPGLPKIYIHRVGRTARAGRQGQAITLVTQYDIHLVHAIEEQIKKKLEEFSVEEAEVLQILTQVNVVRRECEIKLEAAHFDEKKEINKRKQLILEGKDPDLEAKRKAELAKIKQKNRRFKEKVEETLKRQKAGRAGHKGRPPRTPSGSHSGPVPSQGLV
UniProt Q9Y333: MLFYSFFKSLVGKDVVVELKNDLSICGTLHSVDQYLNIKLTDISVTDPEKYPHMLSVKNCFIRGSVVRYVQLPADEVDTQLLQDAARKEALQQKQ
UniProt Q9Y303: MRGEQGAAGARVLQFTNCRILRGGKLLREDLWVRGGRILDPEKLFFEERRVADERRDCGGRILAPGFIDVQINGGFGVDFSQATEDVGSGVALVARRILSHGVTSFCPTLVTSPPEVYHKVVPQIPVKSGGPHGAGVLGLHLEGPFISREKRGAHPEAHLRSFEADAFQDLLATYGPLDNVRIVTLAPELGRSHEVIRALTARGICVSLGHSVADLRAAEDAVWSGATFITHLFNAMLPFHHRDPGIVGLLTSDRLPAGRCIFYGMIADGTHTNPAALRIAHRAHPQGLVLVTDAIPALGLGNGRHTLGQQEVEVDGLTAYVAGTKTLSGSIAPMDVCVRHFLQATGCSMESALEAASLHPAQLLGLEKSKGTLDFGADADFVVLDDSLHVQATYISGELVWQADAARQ
UniProt Q9Y3Q8: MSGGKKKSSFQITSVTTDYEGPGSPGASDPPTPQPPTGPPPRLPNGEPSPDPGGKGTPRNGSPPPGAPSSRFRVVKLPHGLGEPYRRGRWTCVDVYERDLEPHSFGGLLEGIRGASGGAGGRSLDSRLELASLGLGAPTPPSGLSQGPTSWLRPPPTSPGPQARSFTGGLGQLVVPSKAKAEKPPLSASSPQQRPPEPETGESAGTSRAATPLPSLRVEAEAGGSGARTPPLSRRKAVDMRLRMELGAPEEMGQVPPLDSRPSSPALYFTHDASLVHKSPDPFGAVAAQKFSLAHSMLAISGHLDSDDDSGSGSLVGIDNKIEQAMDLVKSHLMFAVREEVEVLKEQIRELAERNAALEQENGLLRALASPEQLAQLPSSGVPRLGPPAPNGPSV
UniProt Q9Y2V7: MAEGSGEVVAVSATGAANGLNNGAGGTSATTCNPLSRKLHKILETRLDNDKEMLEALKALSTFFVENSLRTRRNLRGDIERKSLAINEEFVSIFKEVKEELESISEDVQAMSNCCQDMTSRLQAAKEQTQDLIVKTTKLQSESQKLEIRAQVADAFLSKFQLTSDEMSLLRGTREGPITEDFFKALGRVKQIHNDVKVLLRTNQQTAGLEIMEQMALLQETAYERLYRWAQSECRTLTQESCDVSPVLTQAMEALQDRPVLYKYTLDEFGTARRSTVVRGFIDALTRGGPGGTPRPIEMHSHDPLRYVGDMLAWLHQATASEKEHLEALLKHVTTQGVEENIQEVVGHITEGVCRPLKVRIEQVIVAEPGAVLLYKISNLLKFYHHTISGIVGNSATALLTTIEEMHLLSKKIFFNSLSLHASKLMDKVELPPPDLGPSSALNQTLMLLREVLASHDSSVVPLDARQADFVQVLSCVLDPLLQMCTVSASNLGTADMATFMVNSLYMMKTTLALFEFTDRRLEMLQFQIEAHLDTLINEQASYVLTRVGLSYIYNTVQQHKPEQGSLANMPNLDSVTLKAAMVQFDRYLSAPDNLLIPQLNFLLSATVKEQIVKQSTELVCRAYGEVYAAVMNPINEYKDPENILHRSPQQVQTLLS

Compound: Nc1nc2c(ncn2[C@@H]2O[C@H](COP(=O)(O)OP(=O)(O)OP(=O)(O)O)[C@@H](O)[C@H]2O)c(=O)[nH]1 [guanosine triphosphate]
Assay: NP40-soluble protein abundance relative to vehicle (solubility fold change) (ratio); higher = more soluble protein in presence of GTP
Summary of the method: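 Across three independent experiments, values are fold changes against the detergent-processed vehicle for each replicate, based on vsn-normalised intensities. The samples were Jurkat crude lysate treated with eight concentrations (0.1 to 10 mM) for 10 min at room temperature and then 3 min at 37 °C. Lysate was solubilised with 0.8% NP40 and benzonase, ultracentrifuged, and the supernatant analysed by TMT-labelled LC-MS/MS.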

Target	NP40-soluble protein abundance (concentration: 0.1mM)	NP40-soluble protein abundance (concentration: 0.5mM)	NP40-soluble protein abundance (concentration: 1mM)	NP40-soluble protein abundance (concentration: 2mM)	NP40-soluble protein abundance (concentration: 4mM)	NP40-soluble protein abundance (concentration: 6mM)	NP40-soluble protein abundance (concentration: 8mM)	NP40-soluble protein abundance (concentration: 10mM)
UniProt Q9Y4B5 and related entries	1.04 ± 0.15	1.02 ± 0.0067	1.11 ± 0.11	1.07 ± 0.03	1.109 ± 0.0064	1.09 ± 0.037	1.08 ± 0.076	1.1 ± 0.093
UniProt Q9Y6M7-13|Q9Y6M7-6|Q9Y6M7-7|Q9Y6M7-9	0.97 ± 0.023	0.953 ± 0.041	0.936 ± 0.049	0.937 ± 0.056	0.951 ± 0.023	1.05 ± 0.051	1.05 ± 0.051	1.05 ± 0.049
SAMM50 (UniProt Q9Y512)	1.13 ± 0.15	1.18 ± 0.19	0.999 ± 0.1	1.13 ± 0.29	1.11 ± 0.19	1.1 ± 0.22	0.985 ± 0.098	0.949 ± 0.17
UniProt Q9Y2I7	1.03 ± 0.015	1.03 ± 0.033	0.995 ± 0.034	1 ± 0.043	0.989 ± 0.045	0.968 ± 0.058	0.967 ± 0.033	0.957 ± 0.019
UniProt Q9Y3U8 and related entries	0.976 ± 0.084	0.987 ± 0.01	1.04 ± 0.075	0.994 ± 0.14	0.921 ± 0.12	0.855 ± 0.09	0.514 ± 0.13	0.919 ± 0.16
UniProt Q9Y6K9 and related entries	0.9639 ± 0.0018	0.949 ± 0.027	1.01 ± 0.043	0.984 ± 0.017	0.982 ± 0.03	0.999 ± 0.038	1.05 ± 0.026	1.06 ± 0.045
NOP58 (UniProt Q9Y2X3)	1.01 ± 0.049	1.02 ± 0.019	1.07 ± 0.075	1.19 ± 0.044	1.4 ± 0.066	1.58 ± 0.13	1.77 ± 0.11	2.07 ± 0.16
UniProt Q9Y2S6	0.961 ± 0.16	0.927 ± 0.13	0.966 ± 0.18	0.841 ± 0.23	0.783 ± 0.18	0.784 ± 0.23	0.875 ± 0.16	0.867 ± 0.14
UniProt Q9Y224	0.975 ± 0.16	0.858 ± 0.058	1.12 ± 0.17	1.1 ± 0.048	1.05 ± 0.1	1.08 ± 0.1	0.955 ± 0.14	1.2 ± 0.23
UniProt Q9Y4B6 and related entries	1.08 ± 0.11	1.08 ± 0.12	1.15 ± 0.12	1.17 ± 0.11	1.2 ± 0.15	1.2 ± 0.2	1.22 ± 0.21	1.17 ± 0.21
SUPT16H (UniProt Q9Y5B9)	1.02 ± 0.024	1.01 ± 0.027	0.975 ± 0.016	1 ± 0.054	1.07 ± 0.064	1.14 ± 0.11	1.23 ± 0.13	1.48 ± 0.18
UniProt Q9Y6G5 and related entries	1.04 ± 0.066	1.03 ± 0.044	1.07 ± 0.076	1.08 ± 0.1	1.09 ± 0.14	1.09 ± 0.1	1.07 ± 0.084	1.09 ± 0.17
TRAF3IP3 (UniProt Q9Y228)	0.993 ± 0.082	1.01 ± 0.051	1.16 ± 0.15	1.19 ± 0.076	1.2 ± 0.1	1.22 ± 0.059	1.23 ± 0.1	1.44 ± 0.26
DDX49 (UniProt Q9Y6V7)	1.02 ± 0.056	1.01 ± 0.047	1.03 ± 0.026	1.05 ± 0.072	1.12 ± 0.037	1.19 ± 0.022	1.26 ± 0.076	1.21 ± 0.077
UniProt Q9Y333	0.946 ± 0.08	0.98 ± 0.11	0.973 ± 0.091	0.939 ± 0.1	0.887 ± 0.12	0.989 ± 0.13	0.962 ± 0.089	0.963 ± 0.059
UniProt Q9Y3L3 and related entries	0.998 ± 0.025	1 ± 0.045	0.994 ± 0.018	0.988 ± 0.099	0.981 ± 0.04	0.991 ± 0.052	0.958 ± 0.019	1.01 ± 0.034
ARFGEF1 (UniProt Q9Y6D6)	1.03 ± 0.061	1.01 ± 0.028	1 ± 0.031	1.01 ± 0.039	1.03 ± 0.046	0.996 ± 0.056	1 ± 0.037	1.02 ± 0.046
DIS3 (UniProt Q9Y2L1)	1.04 ± 0.025	1.05 ± 0.058	0.976 ± 0.019	0.986 ± 0.066	0.971 ± 0.054	0.972 ± 0.03	0.938 ± 0.017	0.901 ± 0.056
UniProt Q9Y303 and related entries	0.998 ± 0.018	0.978 ± 0.079	0.969 ± 0.047	0.959 ± 0.094	0.898 ± 0.087	0.92 ± 0.019	0.826 ± 0.051	0.846 ± 0.11
HEBP2 (UniProt Q9Y5Z4)	0.851 ± 0.12	0.856 ± 0.12	0.856 ± 0.095	0.814 ± 0.11	0.814 ± 0.12	0.815 ± 0.085	0.815 ± 0.13	0.819 ± 0.12
TSC22D4 (UniProt Q9Y3Q8)	0.942 ± 0.05	0.999 ± 0.13	1.08 ± 0.093	1.04 ± 0.09	1 ± 0.074	1.04 ± 0.15	1.07 ± 0.079	1.06 ± 0.02
GIT1 (UniProt Q9Y2X7)	1.01 ± 0.023	1 ± 0.015	1.03 ± 0.021	1.01 ± 0.029	1.05 ± 0.021	1.02 ± 0.016	1.05 ± 0.014	1.02 ± 0.041
UniProt Q9UPY3 and related entries	1.08 ± 0.064	1.04 ± 0.084	1.02 ± 0.037	1.08 ± 0.1	1.07 ± 0.076	1 ± 0.08	1.05 ± 0.055	1.01 ± 0.075
GINS2 (UniProt Q9Y248)	0.945 ± 0.05	0.919 ± 0.042	0.998 ± 0.027	0.974 ± 0.094	0.992 ± 0.046	0.96 ± 0.064	0.946 ± 0.042	1.01 ± 0.015
UniProt Q9Y2V7 and related entries	1.048 ± 0.0094	1 ± 0.065	0.971 ± 0.051	1.02 ± 0.065	1.02 ± 0.05	1.01 ± 0.045	0.947 ± 0.059	0.949 ± 0.059
WASF2 (UniProt Q9Y6W5)	0.946 ± 0.08	0.931 ± 0.071	0.998 ± 0.1	0.936 ± 0.12	0.971 ± 0.09	0.96 ± 0.094	1.02 ± 0.1	0.996 ± 0.13

Rewritten with each value named: part of the list above
ARFGEF1 (UniProt Q9Y6D6)
  NP40-soluble protein abundance (concentration: 0.1mM): 1.03 ± 0.061; NP40-soluble protein abundance (concentration: 0.5mM): 1.01 ± 0.028; NP40-soluble protein abundance (concentration: 1mM): 1 ± 0.031; NP40-soluble protein abundance (concentration: 2mM): 1.01 ± 0.039; NP40-soluble protein abundance (concentration: 4mM): 1.03 ± 0.046; NP40-soluble protein abundance (concentration: 6mM): 0.996 ± 0.056; NP40-soluble protein abundance (concentration: 8mM): 1 ± 0.037; NP40-soluble protein abundance (concentration: 10mM): 1.02 ± 0.046
DIS3 (UniProt Q9Y2L1)
  NP40-soluble protein abundance (concentration: 0.1mM): 1.04 ± 0.025; NP40-soluble protein abundance (concentration: 0.5mM): 1.05 ± 0.058; NP40-soluble protein abundance (concentration: 1mM): 0.976 ± 0.019; NP40-soluble protein abundance (concentration: 2mM): 0.986 ± 0.066; NP40-soluble protein abundance (concentration: 4mM): 0.971 ± 0.054; NP40-soluble protein abundance (concentration: 6mM): 0.972 ± 0.03; NP40-soluble protein abundance (concentration: 8mM): 0.938 ± 0.017; NP40-soluble protein abundance (concentration: 10mM): 0.901 ± 0.056
